# Data taken from paper doi:10.1101/2025.11.07.687155.
# Amino acid sequences for entries named in this document (tags omitted). A change or cut given only in a name is not applied to a line headed by its entry. Chains listed by the source or under a name are the forms on record and can include a tag or linker. Residues count along the entry.
# mini-Nesprin2-mTFP (Q8WXH0, form named): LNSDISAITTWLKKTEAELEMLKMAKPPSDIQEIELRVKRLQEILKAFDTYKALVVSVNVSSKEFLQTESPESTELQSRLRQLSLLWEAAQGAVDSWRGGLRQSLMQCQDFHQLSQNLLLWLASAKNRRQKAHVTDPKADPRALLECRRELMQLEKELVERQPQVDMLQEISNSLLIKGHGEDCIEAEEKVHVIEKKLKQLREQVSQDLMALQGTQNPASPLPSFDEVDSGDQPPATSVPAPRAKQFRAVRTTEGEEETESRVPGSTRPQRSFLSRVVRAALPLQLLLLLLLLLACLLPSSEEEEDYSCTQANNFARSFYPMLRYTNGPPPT
# UniProt O14656, residues 21-332: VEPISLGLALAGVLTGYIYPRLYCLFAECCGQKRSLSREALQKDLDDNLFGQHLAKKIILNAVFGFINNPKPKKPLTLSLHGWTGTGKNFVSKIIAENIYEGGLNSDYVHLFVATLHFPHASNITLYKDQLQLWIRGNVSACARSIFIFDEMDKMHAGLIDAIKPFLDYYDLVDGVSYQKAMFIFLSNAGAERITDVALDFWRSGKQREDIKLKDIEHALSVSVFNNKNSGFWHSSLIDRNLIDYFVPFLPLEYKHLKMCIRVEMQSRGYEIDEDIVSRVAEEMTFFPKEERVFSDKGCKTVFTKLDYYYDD
# Results are given in words; binding and its absence hold for the method and conditions named. In cells and extracts the contact can be indirect. Some binding calls cover weakened binding; strength is not graded here.
# What was measured:
# [1] = target: mini-Nesprin2-mTFP (human) (UniProt Q8WXH0); test: FRET or BRET
# Torsin1A-mTFP (human) = Torsin1A-mTFP (human) (UniProt O14656); test: FRET or BRET
Molecule,binding [1],binding (Torsin1A-mTFP (human))
SUN2-Venus (from UniProt Q9UH99-1 1-717),binds,–
"Venus-CLCC1 (protein, UniProt Q96S66 19-551) HDDDWIDPTDMLNYDAASGTMRKSQAKYGISGEKDVSPDLSCADEISECYHKLDSLTYKIDECEKKKREDYESQSNPVFRRYLNKILIEAGKLGLPDENKGDMHYDAEIILKRETLLEIQKFLNGEDWKPGALDDALSDILINFKFHDFETWKWRFEDSFGVDPYNVLMVLLCLLCIVVLVATELWTYVRWYTQLRRVLIISFLFSLGWNWMYLYKLAFAQHQAEVAKMEPLNNVCAKKMDWTGSIWEWFRSSWTYKDDPCQKYYELLLVNPIWLVPPTKALAVTFTTFVTEPLKHIGKGTGEFIKALMKEIPALLHLPVLIIMALAILSFCYGAGKSVHVLRHIGGPESEPPQALRPRDRRRQEEIDYRPDGGAGDADFHYRGQMGPTEQGPYAKTYEGRREILRERDVDLRFQTGNKSPEVLRAFDVPDAEAREHPTVVPSHKSPVLDTKPKETGGILGEGTPKESSTESSQSAKPVSGQDTSGNTEGSPAAEKAQLKSEAAGSPDQGSTYSPARGVAGPRGQDPVSSPCG",–,binds
